From patent US7674789B2, “Compounds” (Glaxo Group Limited, priority 2005, dated 2010)
At least one compound was matched to its structure with a doubt left.

Tested on: influx of neutrophils to the lung in LPS-challenged rats
Test: Rat LPS neutrophilia model
Type: in vivo
Settings: intratracheal compound 15 min-24 hours before LPS aerosol (100 ug/ml, 15 min), lavage 4 hours later, in at least one of the range of conditions tested
Description: Rat LPS Neutrophilia Model
The effect of compounds on the influx of neutrophils to the lung in LPS-challenged rats is evaluated as follows. The test compound is suspended in one of the following solutions: 0.5% tween 80/PBS, 0.5% tween 80/saline, 10% EtOH/saline (with pH adjusted to 2.0, or 8.0 with HCl, or unadjusted), Saline @ pH 2.0, 6.5 or 8.0, 0.5% Tragacanth, 1% DMSO/20% Encapsin/Saline, or acidified 5% Tragacanth. The suspension process may be aided by the use of a glass homogenizer. For intratracheal administration, the animals are anesthetized with inhaled isoflurane and placed in a supine position, the trachea is intubated with a steel gavage needle (1.5 inch, 22 gauge, small ball) or a Penn-Century Microsprayer Aerosolizer (model IA-1B) and 200 ul of dosing solution is delivered. The animals are visually monitored during the recovery process, which typically occurs within two minutes.
Rats treated with compound or vehicle (15 min-24 hours pretreatment) are exposed to an LPS aerosol (100 ug/ml) for 15 min. Four hours later the rats are euthanized with pentobarbital (100 mg/kg, i.p.) and the airways are lavaged with 5 washes of 5 ml of phosphate buffered saline. The harvested cells are stained (Diffquick) and counted to determine total and differential cell data. […] Inhibition of neutrophil levels relative to no compound controls is calculated based on the differential counts. […]

Cc1ccc(C(=O)NC(C)C)cc1-c1nc(N2CCC(N3CCOCC3)CC2)nc2c1CNC(=O)N2c1c(F)cccc1F [Example 71, 3-{8-(2,6-difluorophenyl)-2-[4-(4-morpholinyl)-1-piperidinyl]-7-oxo-5,6,7,8-tetrahydropyrimido[4,5-d]pyrimidin-4-yl}-4-methyl-N-(1-methylethyl)benzamide]
inhibition of neutrophilia (neutrophil influx to the lung): statistically significant inhibition of neutrophilia
